Patent US12577244B2, “Heterocyclic compound and harmful arthropod-controlling composition containing same” (SUMITOMO CHEMICAL COMPANY, LIMITED, priority 2020, dated 2026)
Some of these results come from one statement about several compounds together. At least one compound was matched to its structure with a doubt left.

tested on: common house mosquito (Culex pipiens pallens); assay: Test Method 12: last instar larvae of common house mosquito released into diluted solution; type: in vivo; settings: 3.5 ppm, after 1 day

Structure (SMILES) | mortality
CCSc1c(N(C)C(=O)c2cccc(I)c2)nc2ccc(Br)cn12 [compound 15] | > 90%
CCS(=O)(=O)c1c(N(C)C(=O)c2cccc(I)c2)nc2ccc(Br)cn12 [compound 45] | > 90%
CCSc1c(N(C)C(=O)c2ccnc(C(F)(F)F)c2)nc2ccc(I)cn12 [compound 77] | > 90%
CCS(=O)(=O)c1c(N(C)C(=O)c2ccc(OC(F)F)cc2)nc2ccc(Br)cn12 [compound 100] | > 90%
CC[S+]([O-])c1c(N(C)C(=O)c2cccc(I)c2)nc2ccc(Br)cn12 (centres unmarked) [compound 133] | > 90%
